Primary screen of a compound library

Amino acid sequences for entries named in this document (tags omitted).
UniProt E9BF75, entry or part of it: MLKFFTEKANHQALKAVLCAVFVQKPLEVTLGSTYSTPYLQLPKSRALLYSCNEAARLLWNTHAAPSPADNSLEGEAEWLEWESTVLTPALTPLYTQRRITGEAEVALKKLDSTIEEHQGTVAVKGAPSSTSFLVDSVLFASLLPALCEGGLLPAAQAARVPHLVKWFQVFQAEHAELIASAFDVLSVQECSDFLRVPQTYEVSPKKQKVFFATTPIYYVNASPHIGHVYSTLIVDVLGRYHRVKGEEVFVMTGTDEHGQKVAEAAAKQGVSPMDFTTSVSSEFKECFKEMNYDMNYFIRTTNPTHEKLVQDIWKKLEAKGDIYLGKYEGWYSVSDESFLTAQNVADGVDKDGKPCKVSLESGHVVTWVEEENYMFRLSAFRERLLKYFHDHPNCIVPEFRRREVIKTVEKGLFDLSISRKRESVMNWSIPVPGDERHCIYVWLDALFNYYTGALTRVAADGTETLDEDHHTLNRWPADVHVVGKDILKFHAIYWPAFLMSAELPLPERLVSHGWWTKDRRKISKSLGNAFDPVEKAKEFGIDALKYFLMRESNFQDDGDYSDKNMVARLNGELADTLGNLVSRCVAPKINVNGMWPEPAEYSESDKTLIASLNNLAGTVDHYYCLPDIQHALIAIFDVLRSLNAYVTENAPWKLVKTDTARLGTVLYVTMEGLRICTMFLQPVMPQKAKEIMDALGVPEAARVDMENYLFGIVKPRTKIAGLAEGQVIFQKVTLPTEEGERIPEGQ

Measurements from “University of Dundee, Small-Polar-MMV Screening Library” (2021), ChEMBL document CHEMBL3988442.

Results are percentages, as filed. The record does not define 0% and 100%; most values in the screen are far below 50% and negative numbers occur (in some assays of this library far below -100). The compounds are a random part of those screened.

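Primary screen of methionyl-tRNA synthetase; the read-out is not stated. Target: Methionyl-tRNA synthetase (putative), Leishmania donovani (UniProt E9BF75). The test concentration is not given. Values are per cent inhibition. Of about 68,000 compounds tested this way, about 24 (0.035%) reached 50% or more in at least one test.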

structure,Inhibition
Cc1cc(F)ccc1N1CCC(N2C[C@@H](C)[C@@](C)(O)C2)CC1,16.17%
CCCC(C)N(C)Cc1nnc(-c2ccco2)o1 (centres undefined),10.56%
O=C(CCN1CCC(c2cc3ccccc3[nH]2)CC1)N1CCOCC1,4.348%
CN(C)C(=O)[C@@H]1C[C@@H]2CCN(Cc3ccc4c(c3)OCO4)C[C@@H]2O1,0.4292%
CC(C)CN1CCC(C(=O)NCCNC(=O)c2ccccc2)CC1,12.53%
N#Cc1ccc(CNC(=O)C2=NN(c3ccccc3)C(=O)CN2)cc1,14.23%
O=C(N1CCOCC1)N1C(CN2CCOCC2)[C@]2(O)CC[C@H]1CC2 (some centres undefined),5.676%
CC(C)c1nn(C)c(N(C)C)c1CNCC(O)c1cccc(F)c1 (centres undefined),14.36%
COc1cccc(CN2CCCCCC2c2cccs2)c1OC (centres undefined),12.96%
Cc1nnsc1CN(C)C(=O)CCn1cnc2ccccc21,18.66%
CCc1noc(C(C)N(C)CC(=O)Nc2cccc(C)n2)n1 (centres undefined),5.419%
Cc1ccccc1OCCN1CCCC(c2cc(C(N)=O)[nH]n2)C1 (centres undefined),16.47%
CN1CCN(Cc2cnc3n2CCN(C(=O)c2cnccn2)C3)CC1,18.73%
CCn1c(C)nnc1SCCNc1nc(C)nc2ncccc12,10.14%
O=C(NCC(O)COc1cccc(F)c1)C1(c2ccc(F)cc2)CC1 (centres undefined),20.21%
Cc1ccc(OC2(C(=O)O)CCN(C/C=C/c3ccco3)CC2)c(C)n1,4.982%
COc1ccc2c(c1)CCN(CCC(=O)NC1CCCCC1)CC2,7.609%
CCN(C)C(=O)Cn1c(-c2ccco2)nn(-c2ccccc2OC)c1=O,10.23%
Cc1ncc(CN(C)C)c(C2CCCN2c2ncccn2)n1 (centres undefined),14.56%
Cn1c(CN2CCCC2)nnc1C1CCCN(C(=O)C2CCOCC2)C1 (centres undefined),11.23%
COc1cccc(CNCCc2cccc(C(N)=O)c2)c1,1.648%
Cc1cc(CNC(=O)N2CCN(c3ccccc3)CC2)no1,12.38%
COC1CN(C(=O)CC(C)C)CCC(=O)N(C)c2ccccc21 (centres undefined),2.466%
O=C(CSC1=NS(=O)(=O)c2cc(Cl)ccc2N1)c1ccccc1,8.168%
CS(=O)(=O)N1CCCC1CS(=O)(=O)c1ccccc1 (centres undefined),17.07%
CSCCC(=O)N1CCCC1c1ccsc1 (centres undefined),1.77%
COc1cc(OC)c(C2CC(=O)Oc3cc(C)[nH]c(=O)c32)c(OC)c1 (centres undefined),11.21%
O=C(O)c1ccc(-c2cscn2)cc1,24.68%
O=C(c1ccnnc1)N1CCN(Cc2cccnc2)c2ncccc2C1,7.945%
COCCNC(=O)[C@H]1CN(Cc2scnc2C)C[C@H]2OCC[C@@H]12,19.5%
CC(NC(=O)Cn1cccnc1=O)c1ccc(OC(F)(F)F)cc1 (centres undefined),0.2674%
O=C(N[C@H]1COC[C@@H]1N1CCCC1)c1c[nH]nc1C1CCCCC1,19.51%
CCC1=N[C@@]2(CC[C@@H]3CN(C(=O)NCC(C)C)C[C@@H]32)C(=O)N1CC1CC1,11.4%
Cn1cc(C(=O)N2CCC(c3ncc[nH]3)CC2)cn1,15.4%
COc1cccc(Cn2cc(C3=CCN(CC(=O)N(C)C)CC3)cn2)c1,11.75%
Cc1cnn(CCNCc2csc(-c3ccc(F)cc3)n2)c1,14.29%
COC1CCN(C(=O)COC(C)=O)CC(=O)N(C)c2ccccc21 (centres undefined),15.62%
CNC(=O)C1CCN(Cc2cc3c(cc2O)CCC3)CC1,9.574%
CC1c2ncc(COCC3CCOCC3)n2CCN1Cc1cccnc1 (centres undefined),12.2%
Cc1csc(N2CCN(Cc3cnc(C)s3)CC2C)n1 (centres undefined),7.389%
Cc1nonc1C(=O)N1CCCC(c2ncncc2-c2ccncc2)C1 (centres undefined),12.89%
Cc1ncnc(N2CCN(C(=O)C3CC4(CCNCC4)CN3)CC2)c1C (centres undefined),0.8065%
CNC(=O)C1(CCCc2ccccn2)CN(Cc2nccn2C)C1,10.11%
O=C(CC1CC1)N[C@@H]1CN(C(=O)c2ccsc2)C[C@@H]2CCCO[C@@H]21,8.831%
CCN(Cc1ccc2c(c1)OCO2)C(=O)Cn1cccnc1=O,18.21%
COc1ccc(C2=CCN(C(=O)C3CCCN(C(N)=O)C3)CC2)cc1 (centres undefined),4.724%
CCCS(=O)(=O)N1CCC2(CN(c3ccsc3)C(=O)CN2C)C1 (centres undefined),14.29%
COCCN(C)C(=O)Nc1ccc2c(ccn2CC(=O)N(C)C)c1,8.877%
CCNc1ccnc(NC2CCN(S(C)(=O)=O)CC2)n1,14.34%
CC(C)CN(Cc1cnn(C)c1)C(=O)C1COc2ccccc2C1 (centres undefined),2.667%
N[C@H]1CN(C(=O)CCc2cc(Cl)no2)C[C@@H]1c1ccccc1,12.24%
CCN1C[C@H]2C3(CCN(C(C)=O)CC3)CC[C@@]2(C(=O)N(C)C)C1,1.681%
COc1ccc(CN(C(=O)C(C)C)c2cnn(C)c2)c(OC)c1,11.14%
COCCN1CCN(S(C)(=O)=O)Cc2ccc(C)nc21,4.261%
OCCN(Cc1ccno1)Cc1cc(Br)ccc1F,9.704%
CN(Cc1ccc(Br)s1)Cn1nc(-c2ccccc2)oc1=O,10.77%
CCc1nccn1-c1cncc(C2CCCN2CC(=O)N2CCCC2)n1 (centres undefined),1.647%
Cc1nnc(NCC(c2ccco2)N2CCCC2)c(C#N)c1C (centres undefined),7.444%
COC1CCN(c2ccc(F)cc2CN(C)C(C)C(N)=O)CC1 (centres undefined),7.588%
CCn1nc2c(cc1=O)CN(CC1CCCCO1)CC2 (centres undefined),3.621%
CCc1c(C(=O)N2CCN(C)[C@@H]3CS(=O)(=O)C[C@@H]32)[nH]c2ccccc12,10.48%
CCNC(=O)[C@@H]1CCCN1C(=O)c1cccc(CCC(C)(C)O)c1,26.07%
N#Cc1cccc(C(=O)NC2CCc3c(ccc(=O)n3CC3CC3)C2)c1 (centres undefined),14.84%
O=C1NC2(CCN(c3ncccn3)CC2)CC1c1cccnc1 (centres undefined),15.38%

Some entries from above, unchanged:

| structure | Inhibition |
|---|---|
| `CC(NC(=O)Cn1cccnc1=O)c1ccc(OC(F)(F)F)cc1` (centres undefined) | 0.2674% |
| `O=C1NC2(CCN(c3ncccn3)CC2)CC1c1cccnc1` (centres undefined) | 15.38% |
| `O=C(CC1CC1)N[C@@H]1CN(C(=O)c2ccsc2)C[C@@H]2CCCO[C@@H]21` | 8.831% |
| `OCCN(Cc1ccno1)Cc1cc(Br)ccc1F` | 9.704% |
| `Cc1csc(N2CCN(Cc3cnc(C)s3)CC2C)n1` (centres undefined) | 7.389% |
| `CNC(=O)C1CCN(Cc2cc3c(cc2O)CCC3)CC1` | 9.574% |
| `CN(Cc1ccc(Br)s1)Cn1nc(-c2ccccc2)oc1=O` | 10.77% |